Test results: patent US20110009474A1, “SIRTUIN BASED METHODS AND COMPOSITIONS FOR TREATING BETA-CATENIN-RELATED CONDITIONS” (President and Fellows of Harvard College, priority 2007, published 2011)
No constants are given. Whether binding was seen depends on the method and setting. Binding seen in cells or lysates may run through a third protein. Some results given as binding are weak or reduced against the parent protein; the word gives no strength.

The chains behind the UniProt entries cited, without tags or fusion partners. Where a name states a change or a piece, a line headed by the entry shows the natural chain unless it says otherwise.
UniProt P35222: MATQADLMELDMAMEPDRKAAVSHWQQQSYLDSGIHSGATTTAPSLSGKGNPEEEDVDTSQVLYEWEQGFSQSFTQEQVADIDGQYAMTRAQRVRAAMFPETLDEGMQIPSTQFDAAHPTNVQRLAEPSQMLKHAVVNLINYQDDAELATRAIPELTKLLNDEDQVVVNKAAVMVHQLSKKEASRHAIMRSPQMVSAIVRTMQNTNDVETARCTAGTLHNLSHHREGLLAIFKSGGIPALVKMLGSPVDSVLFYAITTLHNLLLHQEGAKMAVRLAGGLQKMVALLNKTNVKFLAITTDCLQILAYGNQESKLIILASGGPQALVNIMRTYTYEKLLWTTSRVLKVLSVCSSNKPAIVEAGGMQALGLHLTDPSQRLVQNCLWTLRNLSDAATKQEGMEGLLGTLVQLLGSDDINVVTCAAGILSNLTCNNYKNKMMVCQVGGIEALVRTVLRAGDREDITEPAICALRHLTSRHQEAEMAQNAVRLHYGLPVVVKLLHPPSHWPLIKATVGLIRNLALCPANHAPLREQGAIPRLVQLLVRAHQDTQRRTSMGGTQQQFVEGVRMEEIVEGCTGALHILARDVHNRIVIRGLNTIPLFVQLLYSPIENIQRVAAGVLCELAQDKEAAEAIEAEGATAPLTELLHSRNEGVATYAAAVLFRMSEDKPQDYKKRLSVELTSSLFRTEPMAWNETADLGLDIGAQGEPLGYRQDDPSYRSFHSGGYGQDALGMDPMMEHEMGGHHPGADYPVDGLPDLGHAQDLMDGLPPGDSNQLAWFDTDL
UniProt Q96EB6: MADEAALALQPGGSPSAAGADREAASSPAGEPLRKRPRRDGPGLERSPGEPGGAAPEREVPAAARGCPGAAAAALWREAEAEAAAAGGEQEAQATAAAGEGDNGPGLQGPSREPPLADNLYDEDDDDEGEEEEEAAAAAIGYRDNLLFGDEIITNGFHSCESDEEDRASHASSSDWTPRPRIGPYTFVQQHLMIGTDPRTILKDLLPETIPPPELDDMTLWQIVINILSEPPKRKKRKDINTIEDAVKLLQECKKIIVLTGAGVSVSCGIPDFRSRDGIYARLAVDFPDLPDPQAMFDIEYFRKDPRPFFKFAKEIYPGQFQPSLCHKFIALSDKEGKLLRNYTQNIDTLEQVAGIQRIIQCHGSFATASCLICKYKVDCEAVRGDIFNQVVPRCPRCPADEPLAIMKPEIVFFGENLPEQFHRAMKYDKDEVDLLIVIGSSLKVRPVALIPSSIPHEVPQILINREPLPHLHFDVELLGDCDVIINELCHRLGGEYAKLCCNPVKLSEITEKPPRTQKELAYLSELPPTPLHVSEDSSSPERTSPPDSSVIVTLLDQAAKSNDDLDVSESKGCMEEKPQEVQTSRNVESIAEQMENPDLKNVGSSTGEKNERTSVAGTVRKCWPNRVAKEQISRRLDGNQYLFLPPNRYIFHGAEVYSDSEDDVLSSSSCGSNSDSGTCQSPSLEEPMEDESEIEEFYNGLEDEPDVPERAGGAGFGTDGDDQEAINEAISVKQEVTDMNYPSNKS

Assays:
[1] = biological target: endogenous β-catenin (human) (UniProt P35222); experiment: co-immunoprecipitation from LN-CAP extract with anti-SIRT1 antibody, FIG. 4C
[2] = biological target: endogenous β-catenin (human) (UniProt P35222); experiment: co-immunoprecipitation from LN-CAP cell extract (IP anti-SIRT1, blot anti-β-catenin)

binding [1]: binds | binding [2]: binds
Substance: endogenous SIRT1 (LN-CAP cells) (from UniProt Q96EB6 2-747)
